# Measurements from article PMC3849980.
# Protein sequences, listed by entry. Tags and fused reporters are not part of them. Residues count along the entry.
# UniProt P02769, residues 25-607: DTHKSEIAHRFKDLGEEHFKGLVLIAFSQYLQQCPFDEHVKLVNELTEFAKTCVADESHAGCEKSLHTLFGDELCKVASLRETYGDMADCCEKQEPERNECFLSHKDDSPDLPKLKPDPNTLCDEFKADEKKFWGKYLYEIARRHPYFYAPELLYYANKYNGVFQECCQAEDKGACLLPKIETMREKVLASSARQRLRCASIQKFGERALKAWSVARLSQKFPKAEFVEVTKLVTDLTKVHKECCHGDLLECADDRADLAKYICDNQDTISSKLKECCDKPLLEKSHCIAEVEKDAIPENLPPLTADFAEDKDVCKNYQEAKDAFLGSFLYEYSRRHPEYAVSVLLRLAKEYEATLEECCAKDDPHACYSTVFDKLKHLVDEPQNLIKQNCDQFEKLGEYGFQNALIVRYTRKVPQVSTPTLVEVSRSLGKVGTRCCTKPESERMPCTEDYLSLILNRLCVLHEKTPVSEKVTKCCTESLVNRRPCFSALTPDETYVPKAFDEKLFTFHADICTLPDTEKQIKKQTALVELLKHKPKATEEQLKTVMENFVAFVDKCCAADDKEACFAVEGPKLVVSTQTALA
# Results are given in words; binding and its absence hold for the method and conditions named.
# Experiments:
# [1] = biological target: bovine serum albumin (BSA) (bovine) (UniProt P02769); assay: ELISA; wells coated with Avastin mAb, control antibodies or BSA at 4°C overnight, blocked with 1% BSA in TBS; affinity-selected phage added, room temperature 2 h; HRP anti-M13 antibody, OD490; only the target purified
# [2] = biological target: bovine serum albumin (BSA) (bovine) (UniProt P02769); assay: ELISA; wells coated with Avastin, control antibodies or BSA overnight, blocked with 1% BSA; C-terminally biotin-labeled 12P added; HRP-streptavidin, OPD; both purified
Binder,binding [1],binding [2]
DHTLYTPYHTHP [Phage 1: phage plaques displaying peptide …],no binding,–
NHFGKFLDALAG [Phage 2: phage plaques displaying peptide …],no binding,–
"DHTLYTPYHTHP (C-terminally biotin-labeled) [12P, chemically synthesized mimotope peptide …]",–,no binding
